# Experimental data as given in patent US20120101086A1, “THIADIAZOLE DERIVATIVES AND THEIR USE FOR THE TREATMENT OF DISORDERS MEDIATED BY S1P1 RECEPTORS” (GLAXO GROUP LIMITED, priority 2009, published 2012).
# The chains behind the UniProt entries cited, without tags or fusion partners.
# UniProt Q99500, whole entry, species assumed: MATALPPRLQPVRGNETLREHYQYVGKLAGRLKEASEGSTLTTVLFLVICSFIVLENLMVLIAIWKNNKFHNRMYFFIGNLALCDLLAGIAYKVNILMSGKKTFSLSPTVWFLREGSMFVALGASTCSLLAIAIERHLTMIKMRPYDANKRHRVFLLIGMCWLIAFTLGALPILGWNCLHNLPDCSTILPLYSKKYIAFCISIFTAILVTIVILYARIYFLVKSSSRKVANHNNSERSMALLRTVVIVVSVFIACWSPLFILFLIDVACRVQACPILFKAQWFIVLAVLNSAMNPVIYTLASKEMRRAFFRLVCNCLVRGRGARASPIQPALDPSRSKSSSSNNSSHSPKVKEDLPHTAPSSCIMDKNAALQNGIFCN
# UniProt P21453, whole entry: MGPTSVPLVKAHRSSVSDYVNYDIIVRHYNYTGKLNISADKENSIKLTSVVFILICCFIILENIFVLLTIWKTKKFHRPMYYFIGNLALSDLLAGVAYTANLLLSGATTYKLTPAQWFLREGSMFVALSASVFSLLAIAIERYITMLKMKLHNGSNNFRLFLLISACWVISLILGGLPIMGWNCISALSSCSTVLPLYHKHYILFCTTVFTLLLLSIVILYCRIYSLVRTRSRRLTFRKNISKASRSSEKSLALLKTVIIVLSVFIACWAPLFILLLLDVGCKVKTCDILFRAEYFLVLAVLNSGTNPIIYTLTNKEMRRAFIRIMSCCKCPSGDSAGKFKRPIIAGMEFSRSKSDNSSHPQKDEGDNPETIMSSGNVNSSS
# Some entries share one result that the patent states for a list of compounds.
# Assays:
# S1P3 = target: T1, S1P3 (Homo sapiens, UniProt Q99500); experiment: S1P3 GTPγS assay; type: biochemical
# T1 construct: expressed in transfected cells; host or cells: RBL cells (membranes, crude or sucrose-gradient purified)
# S1P1 [1] = target: T2, S1P1 (Homo sapiens, UniProt P21453); experiment: S1P-1 β-Arrestin recruitment assay; type: cell-based; parameters: host or cells: PathHunter CHO-K1 EDG1 β-Arrestin cell line; conditions: PathHunter CHO-K1 EDG1 β-Arrestin cell line, chemi-luminescence
# Protocol: β-Arrestin recruitment assays were carried out using the PathHunter CHO-K1 EDG1 β-Arrestin cell line (DiscoveRx Corporation) in a chemi-luminescence detection assay. This cell line stably expresses β-Arrestin 2 and S1P1 fused to complementing portions of β-galactosidase (‘EA’ and ‘pro-link’, respectively) which associate upon Arrestin recruitment to form functional β-galactosidase enzyme.
# Cells were grown to 80% confluency in Growth Medium (F12 nutrient HAMS supplemented with 10% heat-inactivated USA FBS, 1% L-glutamax, 800 m/ml Geneticin and 300 m/ml Hygromycin). Cells were harvested from the flask using Enzyme Free Cell Dissociation Buffer (Gibco) and washed from flasks with Optimem solution (Gibco). Cells were then centrifuged at 1000 rpm for 2-3 min and resuspended in Assay Buffer (Prepared from Sigma kit H1387 supplemented with 20 ml/L HEPES, 4.7 ml/L NaHCO3, 0.1% pluronic acid F-68 solution, 0.1% BSA and adjusted to pH 7.4 using sodium hydroxide at 1×10^6 cells/ml. Cells were dispensed into assay plates containing compounds (100n1/well of a solution of test compound in 100% DMSO) at 1×10^4 cells/well and incubated at 37° C./5% CO2 for 90 min followed by 15 min at room temperature. 5 μl detection mix (1 part Galacton Star, 5 parts Emerald II, 19 parts Assay Buffer; DiscoveRx) were added per well and the plates incubated at room temperature for 60 min. Luminescence was quantified using a Viewlux plate reader.
# S1P1 [2] = target: T2, S1P1; experiment: S1P1 GTPγS assay; type: biochemical; parameters: expressed in transfected cells; host or cells: RH7777 cells (membranes)
# Protocol: The potencies and efficacies of the compounds of this invention for the S1P1 receptor can be determined by GTPγS assay performed on the human cloned receptor as described herein. […] All steps were performed at 4° C. Cells were homogenised within a glass Waring blender for 2 bursts of 15 secs in 200 mls of buffer (50 mM HEPES, 1 mM leupeptin, 25 m/ml bacitracin, 1 mM EDTA, 1 mM PMSF, 2 μM pepstatin A). The blender was plunged into ice for 5 mins after the first burst and 10-40 mins after the final burst to allow foam to dissipate. The material was then spun at 500 g for 20 mins and the supernatant spun for 36 mins at 48,000 g. The pellet was resuspended in the same buffer as above but without PMSF and pepstatin A. The material was then forced through a 0.6 mm needle, made up to the required volume, (usually ×4 the volume of the original cell pellet), aliquoted and stored frozen at—80° C. S1P1 expressing RH7777 membranes (1.5 μg/well) membranes (1.5 μg/well) were homogenised by passing through a 23G needle. These were then adhered to WGA-coated SPA beads (0.125 mg/well) in assay buffer (HEPES 20 mM, MgCl2, 10 mM, NaCl 100 mM and pH adjusted to 7.4 using KOH 5M). GDP 10 μM FAC and saponin 90 μg/ml FAC were also added After 30 minutes precoupling on ice, the bead and membrane suspension was dispensed into white Greiner polypropylene LV 384-well plates (5 μl/well), containing 0.1 μl of compound. 5 μl/well [^35S]-GTPγS (0.5 nM for S1P1 or 0.3 nM for S1P3 final radioligand concentration) made in assay buffer was then added to the plates. The final assay cocktail (10.1 μl) was then sealed, spun on a centrifuge, then read immediately on a Viewlux instrument. Alternatively, after 30 minutes precoupling on ice, the bead and membrane suspension was mixed with ^35S]-GTPγS (0.5 nM final radioligand concentration) in assay buffer (HEPES 20 mM, MgCl2 10 mM, NaCl 100 mM and pH adjusted to 7.4 using KOH 5M) in a 1:1 ratio. The bead, membrane and radioligand suspension was dispensed into white Greiner polypropylene low volume 384-well plates (10 μl/well), containing 0.1 μl of a solution of test compound in 100% DMSO. The final assay cocktail (10.1 μl) was then sealed, spun on a centrifuge, then read immediately on a Viewlux instrument.
# [3] = S1P3 expressing RBL membranes, [35S]-GTPγS 0.3 nM, first protocol
# [4] = tested in one of the above S1P3 assays (incl. purified membrane protocol)
# [5] = S1P1 expressing RH7777 membranes, [35S]-GTPγS 0.5 nM, first protocol
# [6] = tested in one of the above S1P1 assays (two protocols)
Compound,pEC50 (S1P3; [3]),pDC50 (S1P3; [4]),pEC50 (S1P3; [4]),pEC50 (S1P1 [1]),pEC50 (S1P1 [2]; [5]),pEC50 (S1P1 [2]; [6])
"Cc1c2c(nn1-c1nnc(-c3ccc(OC(C)C)c(Cl)c3)s1)CCNC2 [Example 1, 2-(5-{3-Chloro-4-[(1-methylethyl)oxy]phenyl}-1,3,4-thiadiazol-2-yl)-3-methyl-4,5,6,7-tetrahydro-2H-pyrazolo[4,3-c]pyridine]",< 6,< 5,< 6,≥ 6,> 6,> 6
"Cc1c2c(nn1-c1nnc(-c3ccc(OC(C)C)c(Cl)c3)s1)CCN(CCC(=O)O)C2.O=C(O)C(F)(F)F [Example 2, 3-[2-(5-{3-Chloro-4-[(1-methylethyl)oxy]phenyl}-1,3,4-thiadiazol-2-yl)-3-methyl-2,4,6,7-tetrahydro-5H-pyrazolo[4,3-c]pyridin-5-yl]propanoic acid]",< 6,–,< 6,≥ 6,> 6,> 6
"Cc1c2c(nn1-c1nnc(-c3ccc(OC(C)C)c(C#N)c3)s1)CCNC2 [Example 3, 2-[(1-Methylethyl)oxy]-5-[5-(3-methyl-4,5,6,7-tetrahydro-2H-pyrazolo[4,3-c]pyridin-2-yl)-1,3,4-thiadiazol-2-yl]benzonitrile]",< 6,< 5,< 6,≥ 6,> 6,> 6
"Cc1c2c(nn1-c1nnc(-c3ccc(OC(C)C)c(C#N)c3)s1)CCN(CCC(=O)O)C2.O=C(O)C(F)(F)F [Example 4, 3-[2-(5-{3-Cyano-4-[(1-methylethyl)oxy]phenyl}-1,3,4-thiadiazol-2-yl)-3-methyl-2,4,6,7-tetrahydro-5H-pyrazolo[4,3-c]pyridin-5-yl]propanoic acid trifluoroacetic acid salt]",< 6,< 5,< 6,≥ 6,> 6,> 6
"Cc1c2c(nn1-c1nnc(-c3ccc(OC(C)C)c(C#N)c3)s1)CCN(CCC(N)=O)C2 [Example 5, 3-[2-(5-{3-Cyano-4-[(1-methylethyl)oxy]phenyl}-1,3,4-thiadiazol-2-yl)-3-methyl-2,4,6,7-tetrahydro-5H-pyrazolo[4,3-c]pyridin-5-yl]propanamide]",< 6,< 5,< 6,≥ 6,> 6,> 6
"CC(C)Oc1ccc(-c2nnc(-n3cc4c(n3)CCN(CCCC(=O)O)C4)s2)cc1Cl [Example 7, 4-[2-(5-{3-Chloro-4-[(1-methylethyl)oxy]phenyl}-1,3,4-thiadiazol-2-yl)-2,4,6,7-tetrahydro-5H-pyrazolo[4,3-c]pyridin-5-yl]butanoic acid]",< 6,< 5,< 6,≥ 6,> 6,> 6
"CC(C)Oc1ccc(-c2nnc(-n3cc4c(n3)CCN(CCC(=O)O)C4)s2)cc1Cl [Example 8, 3-[2-(5-{3-Chloro-4-[(1-methylethyl)oxy]phenyl}-1,3,4-thiadiazol-2-yl)-2,4,6,7-tetrahydro-5H-pyrazolo[4,3-c]pyridin-5-yl]propanoic acid]",< 6,< 5,< 6,≥ 6,> 6,> 6
"CC(C)Oc1ccc(-c2nnc(-n3cc4c(n3)CCN(CCCO)C4)s2)cc1Cl [Example 9, 3-[2-(5-{3-Chloro-4-[(1-methylethyl)oxy]phenyl}-1,3,4-thiadiazol-2-yl)-2,4,6,7-tetrahydro-5H-pyrazolo[4,3-c]pyridin-5-yl]-1-propanol]",< 6,< 5,< 6,≥ 6,> 6,> 6
"CC(C)Oc1ccc(-c2nnc(-n3cc4c(n3)CCN(CCS(C)(=O)=O)C4)s2)cc1Cl [Example 10, 2-(5-{3-Chloro-4-[(1-methylethyl)oxy]phenyl}-1,3,4-thiadiazol-2-yl)-5-[2-(methylsulfonyl)ethyl]-4,5,6,7-tetrahydro-2H-pyrazolo[4,3-c]pyridine]",< 6,< 5,< 6,≥ 6,> 6,> 6
"CC(C)Oc1ccc(-c2nnc(-n3cc4c(n3)CCNC4)s2)cc1C#N.O=C(O)C(F)(F)F [Example 11, 2-[(1-Methylethyl)oxy]-5-[5-(4,5,6,7-tetrahydro-2H-pyrazolo[4,3-c]pyridin-2-yl)-1,3,4-thiadiazol-2-yl]benzonitrile trifluoroacetic acid salt]",< 6,< 5,< 6,≥ 6,> 6,> 6
"CC(C)Oc1ccc(-c2nnc(-n3cc4c(n3)CCN(CCC(=O)O)C4)s2)cc1C#N [Example 12, 3-[2-(5-{3-Cyano-4-[(1-methylethyl)oxy]phenyl}-1,3,4-thiadiazol-2-yl)-2,4,6,7-tetrahydro-5H-pyrazolo[4,3-c]pyridin-5-yl]propanoic acid]",< 6,< 5,< 6,≥ 6,> 6,> 6
"COC(=O)[C@H](O)CN1CCc2nn(-c3nnc(-c4ccc(OC(C)C)c(Cl)c4)s3)c(C)c2C1 [Example 41, methyl (2R)-3-[2-(5-{3-chloro-4-[(1-methylethyl)oxy]phenyl}-1,3,4-thiadiazol-2-yl)-3-methyl-2,4,6,7-tetrahydro-5H-pyrazolo[4,3-c]pyridin-5-yl]-2-hydroxypropanoate]",–,< 5,< 6,≥ 6,–,–
"Cc1c2c(nn1-c1nnc(-c3ccc(OC(C)C)c(Cl)c3)s1)CCN(C[C@H](O)CO)C2.O=CO [Example 42, (2S)-3-[2-(5-{3-chloro-4-[(1-methylethyl)oxy]phenyl}-1,3,4-thiadiazol-2-yl)-3-methyl-2,4,6,7-tetrahydro-5H-pyrazolo[4,3-c]pyridin-5-yl]-1,2-propanediol formic acid salt]",–,< 5,< 6,≥ 6,–,–
"Cc1c2c(nn1-c1nnc(-c3ccc(OC(C)C)c(C#N)c3)s1)CNCC2.Cl [Example 43, 2-[(1-methylethyl)oxy]-5-[5-(3-methyl-4,5,6,7-tetrahydro-2H-pyrazolo[3,4-c]pyridin-2-yl)-1,3,4-thiadiazol-2-yl]benzonitrile hydrochloride]",–,< 5,< 6,≥ 6,–,–
"Cc1c2c(nn1-c1nnc(-c3ccc(OC(C)C)c(C#N)c3)s1)CCN(CC(=O)NC(C)(C)CO)C2 [Example 44, 2-[2-(5-{3-cyano-4-[(1-methylethyl)oxy]phenyl}-1,3,4-thiadiazol-2-yl)-3-methyl-2,4,6,7-tetrahydro-5H-pyrazolo[4,3-c]pyridin-5-yl]-N-(2-hydroxy-1,1-dimethylethyl)acetamide]",–,< 5,< 6,≥ 6,–,–
